Source: publication PMC6204899

Biological target: T1, ARGONAUTE1 (Arabidopsis thaliana (endogenous in seedlings)) (UniProt O04379)
T1 sequence: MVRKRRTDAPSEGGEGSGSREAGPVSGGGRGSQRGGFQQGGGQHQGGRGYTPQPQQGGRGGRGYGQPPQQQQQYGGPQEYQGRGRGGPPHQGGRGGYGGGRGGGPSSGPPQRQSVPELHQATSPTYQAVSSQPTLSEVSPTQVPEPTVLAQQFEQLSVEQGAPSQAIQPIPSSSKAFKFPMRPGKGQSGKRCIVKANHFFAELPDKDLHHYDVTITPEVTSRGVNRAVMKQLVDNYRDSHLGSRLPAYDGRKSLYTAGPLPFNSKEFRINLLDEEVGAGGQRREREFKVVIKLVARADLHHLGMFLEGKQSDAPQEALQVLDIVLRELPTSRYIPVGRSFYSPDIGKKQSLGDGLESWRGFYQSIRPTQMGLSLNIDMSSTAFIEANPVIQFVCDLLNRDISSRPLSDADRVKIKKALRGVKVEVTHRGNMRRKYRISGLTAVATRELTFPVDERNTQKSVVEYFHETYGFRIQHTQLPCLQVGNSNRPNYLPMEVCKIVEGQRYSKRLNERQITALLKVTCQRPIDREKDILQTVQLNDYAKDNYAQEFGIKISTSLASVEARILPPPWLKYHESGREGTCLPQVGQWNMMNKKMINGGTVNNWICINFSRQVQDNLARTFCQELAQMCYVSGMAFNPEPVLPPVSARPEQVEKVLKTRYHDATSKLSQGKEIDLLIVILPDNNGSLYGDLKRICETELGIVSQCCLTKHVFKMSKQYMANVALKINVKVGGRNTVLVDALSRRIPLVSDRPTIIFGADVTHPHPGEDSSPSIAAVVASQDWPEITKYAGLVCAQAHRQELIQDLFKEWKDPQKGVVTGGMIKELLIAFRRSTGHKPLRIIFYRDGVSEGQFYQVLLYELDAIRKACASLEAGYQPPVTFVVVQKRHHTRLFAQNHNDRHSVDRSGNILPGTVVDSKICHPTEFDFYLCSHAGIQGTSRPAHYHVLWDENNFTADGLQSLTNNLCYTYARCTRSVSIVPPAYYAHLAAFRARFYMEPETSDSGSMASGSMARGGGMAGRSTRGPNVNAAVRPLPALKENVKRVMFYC
Experiment: affinity purification with mass spectrometry; large-scale immunoaffinity purification with native AGO1 antibody from deoxycholate-solubilized microsome fractions of formaldehyde cross-linked 16-day-old seedlings; peptide elution; cross-links reversed; LC-MS/MS; mock immunopurification as control

B1: J3 (farnesylated heat shock protein 40 homolog) (protein, UniProt Q94AW8 1-420)
chain: MFGRGPSKKSDNTKFYEILGVPKSASPEDLKKAYKKAAIKNHPDKGGDPEKFKELAQAYEVLSDPEKREIYDQYGEDALKEGMGGGGGGHDPFDIFSSFFGGGPFGGNTSRQRRQRRGEDVVHPLKVSLEDVYLGTMKKLSLSRNALCSKCNGKGSKSGASLKCGGCQGSGMKVSIRQLGPGMIQQMQHACNECKGTGETINDRDRCPQCKGDKVIPEKKVLEVNVEKGMQHSQKITFEGQADEAPDTVTGDIVFVLQQKEHPKFKRKGEDLFVEHTLSLTEALCGFQFVLTHLDGRSLLIKSNPGEVVKPDSYKAISDEGMPIYQRPFMKGKLYIHFTVEFPDSLSPDQTKALEAVLPKPSTAQLSDMEIDECEETTLHDVNIEDEMRRKAQAQREAYDDDDEDDDHPGGAQRVQCAQQ
modifications: farnesylated in planta (C-terminal CAAX motif; J3 farnesylation site C417)
Q: How did the binding turn out when B1 was run?
A: binds

These are yes or no findings as the source states them, for the method shown. Binding seen in cells or lysates may run through a third protein. These calls come from enrichment with a bait or labelling near it, and not all partners need be listed.
